## Primary screen of a compound library

Measurements from “University of Dundee, Small-Polar-MMV Screening Library” (2021), ChEMBL document CHEMBL3988442.

Mtb growth Cornell: 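Whole-cell assay for inhibitors of Mycobacterium tuberculosis growth, labelled Cornell in the record; the read-out is not stated. The concentration is filed as 10 mM, unlikely as a test dose, so the dose is not known. Higher means stronger inhibition (inferred from two other growth screens of the library). Size under these conditions: about 53,000 compounds, about 900 of them at 50% or above in at least one test.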
Mtb heat-shock: 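Assay on Mycobacterium tuberculosis, filed only as a heat shock assay from Cornell; the read-out is not stated. The concentration is filed as 10 mM, unlikely as a test dose, so the dose is not known. The record gives no direction; compounds that gave an IC50 in retests scored well above the rest, so higher reads as stronger inhibition. About 69,000 compounds were tested under these conditions; 1.4% (about 930) showed 50% or more at least once.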

Results are given as percent effect. The controls that fix the scale are not given in the record; negative values are as filed. This is an unselected part of the compounds tested. A dash means the value is not listed here; it may have been measured.

| # | compound | Mtb growth Cornell | Mtb heat-shock |
|---|---|---|---|
| 1 | `CC(NS(C)(=O)=O)C(=O)N(C)Cc1csc(-c2cccs2)n1` (stereo not drawn) | - | -2.674% |
| 2 | `COc1cc2c(cc1C1CC(=O)NCc3nc(N(C)C)sc31)CCC2` (stereo not drawn) | - | -2.329% |
| 3 | `CC(C)c1csc(C(=O)N(C)c2ccc(Br)cn2)n1` | -2.323% | -20.83% |
| 4 | `Cc1ccc(S(=O)(=O)Nc2ccc(-n3cccc3C(=O)O)c(C)c2)s1` | 77.19% | 6.626% |
| 5 | `Cc1ccccc1C1(CNC(=O)N2CCC(CC(N)=O)CC2)CC1` | 8.21% | 0.5899% |
| 6 | `COc1ccc(OCC2CCCN(Cc3ccncc3)C2)cc1` (stereo not drawn) | -13.39% | -0.9295% |
| 7 | `[H][C@@]12CCCO[C@]1([H])[C@H](N(C)C(C)C)CN(C(=O)c1cc(C)[nH]c1C)C2` | 28.8% | 13.12% |
| 8 | `CS(=O)(=O)CCCNCc1c(Cl)cccc1N1CCCC1` | 25.03% | -29.52% |
| 9 | `CCCC(C)Sc1nnnn1C1CCOCC1` (stereo not drawn) | 13.43% | -32.34% |
| 10 | `COCCN1CCCC(O)(CN2CCN(Cc3ccncc3)CC2)C1=O` (stereo not drawn) | - | -3.315% |
| 11 | `O=C1N(c2ccc(F)cc2)Cc2n[nH]c(=O)n21` | 17.39% | 16.46% |
| 12 | `Fc1cccc(Oc2ccc(CNCC3CNc4ccnn4C3)cn2)c1` (stereo not drawn) | 21.43% | -2.199% |
| 13 | `CCC(Nc1cccc(OC)c1)C(=O)N(CCOC)Cc1cnn(C)c1` (stereo not drawn) | - | 3.388% |
| 14 | `CCC(=O)N(c1ccc(C(=O)OC)cc1C)C(C)C` | -3.006% | -14.01% |
| 15 | `O=C1NCC2(CCCN(C(=O)Nc3ccc4scnc4c3)CC2)O1` (stereo not drawn) | 10.26% | 23.19% |
| 16 | `O=C(c1cnn(-c2ccccc2)c1)N1CCN(c2cnccn2)CC1` | 11.13% | -4.359% |
| 17 | `CC(C)N(C)S(=O)(=O)c1ccc2c(c1)CCN(C(=O)c1ccccn1)C2` | -33.22% | -20.78% |
| 18 | `CCc1nnc(CNC(=O)CCN2CCN(c3cccc(C)c3)CC2)s1` | -43.37% | -9.642% |
| 19 | `O=C(NCc1cn2cccnc2n1)C1CC(=O)N(Cc2cccnc2)C1` (stereo not drawn) | -16.88% | -0.9288% |
| 20 | `CCCS(=O)(=O)NCCc1ncc(CC)s1` | 5.005% | 8.513% |
| 21 | `CN1CCCC(Cc2cncc(C(=O)NCC3CC3)c2)C1` (stereo not drawn) | -8.508% | -17.11% |
| 22 | `O=C(O)C(F)(F)F.O=S(=O)(C1CC1)N1CC[C@]2(C[C@@H](Oc3ncccc3F)CO2)C1` | 21.71% | 14.72% |
| 23 | `CCn1c(CC2CCN(C(=O)c3cc(CC(C)C)on3)CC2)n[nH]c1=O` | -23.51% | -3.688% |
| 24 | `O=c1[nH]c(C2CCOC2)nc2ccc(Br)cc12` (stereo not drawn) | -9.524% | -3.325% |
| 25 | `CCc1nc(C2CCCN2C(=O)c2ccc(N3CCCC3)nn2)no1` (stereo not drawn) | 14.45% | -10.3% |
| 26 | `COc1ccc(-n2nc(C)c(C(C)=O)c2C)cc1CO` | - | 9.142% |
| 27 | `CCN(C(=O)CN1CCCC1c1ccc(F)cc1)c1ccccc1C` (stereo not drawn) | 22.62% | -2.842% |
| 28 | `CCc1nc(C(=O)N2CCN(Cc3ccc(Cl)cc3)CC2)c[nH]1` | -4.249% | -1.629% |
| 29 | `Cc1cnn(CCNCc2ccc(OCc3cscn3)cc2)c1` | 7.353% | -20.68% |
| 30 | `CCC(NC(=O)c1cnc(-c2cccnc2)nc1)c1ccnn1C` (stereo not drawn) | -16.68% | -5.151% |
| 31 | `CC(C(=O)NCc1ccnc(N2CCCCCC2)c1)n1cccn1` (stereo not drawn) | - | 1.442% |
| 32 | `O=S(=O)(c1cn[nH]c1)N1CCC(O)(CN2CCOCC2)C1` (stereo not drawn) | 14.63% | -11.42% |
| 33 | `CC(=O)N1CCCC1c1cc(N2CCN(CC3CC3)CC2)cc(C)n1` (stereo not drawn) | - | -15.99% |
| 34 | `CCOC(=O)c1ccc(CNC(=O)c2ccncc2Cl)o1` | -5.94% | -11.43% |
| 35 | `COCC(=O)N1Cc2nccn2CC(Cn2ncccc2=O)C1` (stereo not drawn) | 25.52% | -0.3776% |
| 36 | `Cc1nn(C)c(C)c1NC(=O)CN1CCCC1c1noc(C(C)C)n1` (stereo not drawn) | -14.78% | 5.056% |
| 37 | `CN(C)C(=O)c1cccc(CCNS(C)(=O)=O)c1` | - | 6.582% |
| 38 | `CN(C)CCN(C)c1nc(CCc2ccccc2)nc2c1cnn2C` | 12.75% | 3.585% |
| 39 | `CC(C)(C)c1coc([C@@H]2COCCN2Cc2csnn2)n1` | -7.167% | -41.28% |
| 40 | `Cc1ccc(CN(Cc2ccncc2)C2CCN(C)CC2)s1` | -35.54% | -14.73% |
| 41 | `CC(C)Cc1nc(COc2ccc(N(C)C(N)=O)cc2)no1` | 14.03% | -0.07893% |
| 42 | `O=C(O)C(F)(F)F.[H][C@@]12CN(CC)C[C@]1(C(=O)NC)CCC21CCN(C(=O)NC(C)C)CC1` | -3.5% | 3.377% |
| 43 | `O=S(=O)(NC1CCCOC1)c1ccc(C(F)(F)F)nc1` (stereo not drawn) | - | -11.16% |
| 44 | `Cn1cc(CC2CCN(C(=O)NCc3cccc(C#N)c3)C2)cn1` (stereo not drawn) | - | -19.28% |

Once more, the final 5:

compound	Mtb growth Cornell	Mtb heat-shock
Cc1ccc(CN(Cc2ccncc2)C2CCN(C)CC2)s1	-35.54%	-14.73%
CC(C)Cc1nc(COc2ccc(N(C)C(N)=O)cc2)no1	14.03%	-0.07893%
O=C(O)C(F)(F)F.[H][C@@]12CN(CC)C[C@]1(C(=O)NC)CCC21CCN(C(=O)NC(C)C)CC1	-3.5%	3.377%
O=S(=O)(NC1CCCOC1)c1ccc(C(F)(F)F)nc1 (stereo not drawn)	-	-11.16%
Cn1cc(CC2CCN(C(=O)NCc3cccc(C#N)c3)C2)cn1 (stereo not drawn)	-	-19.28%